# Results deposited as PubChem BioAssay AID1508588 (Peter MacCallum Cancer Centre, 2020)
# Purpose: 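Knock-downs boosting vemurafenib effects on melanoma cell growth or lactate release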 (primary screen)
# Cell system: human WM266.4 melanoma cells (BRAF V600 mutant)
# Reagent: siRNA pool against human genes, 40 nM
# Time to read-out: 96 h from transfection to read-out
# Conditions: vemurafenib 300 nM (about IC25), added 48 h after transfection, for 48 h; comparison arm got DMSO vehicle only
# Measured: 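Cell gain (DAPI nuclei at end minus before drug, mean of two replicates) and medium lactate by absorbance per cell, both as ratio to non-targeting siRNA, also grouped into fold-change classes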
# Direction: cell gain with vemurafenib: higher = more cell gain than with non-targeting siRNA; lactate per cell with vemurafenib: higher = more lactate made per cell
# Rule for the call: 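Enhancement is called by pairing each knock-down's vehicle-arm and drug-arm fold-change classes for viability or glycolysis; which class combinations qualify is not given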
# Meaning of the calls: active = enhances vemurafenib effect; inactive = no enhancement seen
# In all, the deposit lists about 18,000 reagents; below is a part drawn at random. 790 of them (4.4%) were called active. 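Calls rest on a combination of fold-change classes in drug and vehicle arms, not all shown here.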 A number with no mark means an inactive call.
Gene,cell gain with vemurafenib,lactate per cell with vemurafenib
SRSF7,0.34,0.96
MRPL11,0.56,0.96
CRYM,0.25,0.74
CCL7,0.71,0.52
NAT16,0.89,1.04
VPS25,0.58,1.27
ITGAV,-0.31,2.67
SECISBP2,0.66,0.68
ANXA1,0.81,0.86
ZNF311,0.79,0.85
B3GAT2,0.86,1.12
HSPA2,0.35,0.56
ABCG1,0.78,0.79
NDUFAF3,0.44,1.22
IL36A,0.6,0.73
SSR1,0.44,0.86
P2RY2,0.7,0.68
B4GALT5,0.58,0.9
PROM1,0.35,1.17
ADD1,0.68 (active),0.48
METTL1,0.58,0.9
TAF7L,0.43,1.79
TRIM3,1.12,0.82
CDK20,0.72,0.66
GRIN3B,1.61,0.4
TLX1,1.06,0.84
PIEZO2,0.74 (active),-0.02
AQP1,0.39,0.68
MGP,0.1,0.88
ZNF75A,0.21,0.96
SEC61B,0.09,1.33
LRP2,0.81,0.88
IER5L,0.68,1.07
DLG5,0.93,0.51
DNAJA4,0.77,0.94
ECI2,0.65,0.46
CREB3L3,0.68,0.58
IGHMBP2,0.4,2.12
NFS1,0.28,1.08
SLC35A3,0.34,1.44
C1orf35,0.4,1.79
TSR1,0.74,1.02
ANKRD23,0.06,0.52
PRRX2,1.01,0.82
COL7A1,0.27,1.06
MRS2,0.56 (active),0.16
ZNF433,0.61,0.88
ERICH3,0.42,1.23
LRRK2,0.57,0.69
ARRDC1-AS1,0.7,1.29
NCR1,0.31,1.63
OR51A7,0.65,0.71
MAGEC2,1.02,0.97
KIF1B,0.45 (active),0.55
YWHAE,-0.01,2.94
TICAM2,0.7,1.04
USP39,0.17,0.77
ATCAY,0.62,1.04
MYL6,0.86,0.74
ART4,1.14,0.45
DMBT1,0.56,0.76
PSG9,1.08,0.3
ITIH1,0.41,0.86
SHISA2,0.4,1
NXPE1,0.08,2.38
HS6ST3,0.83,0.57
BRI3,0.85,1.44
P2RY11,1.02,1.36

Single entries from the entries so far:
Value of LRRK2 in “lactate per cell with vemurafenib”: 0.69
ANKRD23, cell gain with vemurafenib → 0.06
Entry for SECISBP2 in “lactate per cell with vemurafenib”: 0.68
ABCG1, lactate per cell with vemurafenib: 0.79
Result for PRRX2 in “cell gain with vemurafenib”: 1.01
DMBT1, cell gain with vemurafenib → 0.56

Next results follow:
Gene,cell gain with vemurafenib,lactate per cell with vemurafenib
EBNA1BP2,0,2.52
CD27,0.46,1.28
PCDHB3,0.88,0.67
LCE3B,0.57,1.27
MTPAP,0.72,1.17
SOX9,0.37,1.92
RCN1,0.9,0.43
ZDHHC1,0.86,0.78
ASIC5,0.88,1.05
NXF1,0.28,1.66
GOLGA8G,0.77,0.64
CFAP53,0.99,1.52
ASB11,0.97,0.78
CHSY1,0.07,0.62
PLA2G4E,0.24,1.16
GAPVD1,1.12,0.8
GABBR2,0.1,2.08
SFRP5,0.41,1.27
B9D1,0.51,1.15
TSG101,0.93,1.02
BCL10,0.64,1.25
APOO,0.48 (active),0.06
QRFPR,0.42,1.1
OR4M1,0.7,0.64
SDC4,0.22,2.04
GYPA,0.95,0.55
NPAS1,0.93,0.81
BORCS7,0.65,0.88
PEX12,0.17,1.82
NOL6,0.34,1.12
NPPC,0.73,0.68
PPARGC1A,0.38,1.69
ARMC6,0.39,1.7
SAMD10,0.65,0.8
SPHAR (retired record),0.46,1.01
IDUA,0.75,0.71
EFNB2,0.21,1.14
ACSL4,0.84,0.43
SCYL3,0.75,0.78
